Test results: PubChem BioAssay AID2685 (National Center for Advancing Translational Sciences (NCATS), 2010)
This is one part of the list. These are further read-outs of the screen, such as a control signal, another cell line or another target. No call is given for them. Most of these compounds were active or inconclusive in the main read-out, so they are no random draw. Words in brackets tell the shape of the fitted curve; partial curves, single points and poor fits give uncertain potencies.

Test: qHTS Assay for Lipid Storage Modulators in Drosophila S3 Cells;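 for cell number change: cells counted by Cell Tracker Red CMTPX staining in the red channel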
Settings: BODIPY lipid droplet fluorescence, 18-24 h; for cell number change: measured here: cell count max response, cells fed with added oleic acid
Outline: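 Drosophila S3 cells loaded with oleic acid (400 uM, as added) and compounds at several concentrations; lipid droplets imaged by 488-nm laser-scanning cytometry, 500–530 nm intensity and object ratio to cell channel. Percent activity normalized to 20 uM Triacsin C.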

[1] = measured here: lipid fluorescence (Fed channel) AC50, cells fed with added oleic acid
[2] = measured here: cell number channel AC50, cells fed with added oleic acid

| Compound | cell number change | AC50 [1] | AC50 [2] |
| --- | --- | --- | --- |
| CCOC(=O)C1CCN(S(=O)(=O)c2ccc(OC)c(C(=O)N3CCCCC3)c2)CC1 | 12.5% | – | – |
| N#Cc1c(NC(=S)NC(=O)c2ccccc2)sc2c1CCCC2 | 11.9% | 0.116 µM [rising, full curve, poor fit] | – |
| COc1cc(C2SCC(=O)N2c2c(C)n(C)n(-c3ccccc3)c2=O)ccc1O (stereo not drawn) | 5.96% | – | – |
| COc1ccc(-n2nc3c(c2NC(=O)C(C)Cl)CSC3)cc1 (stereo not drawn) | 7.95% | 16.4 µM [rising, single point] | – |
| CCCCN(C(=O)CSc1nncn1-c1ccccc1OC)c1c(N)n(Cc2ccccc2)c(=O)[nH]c1=O | 2.87% | – | – |
| COC(=O)c1sc(NC(=S)NNC(=O)c2c(Br)c(C)nn2C)c(C(=O)OC)c1C | -45.5% | – | 20.6 µM [falling, single point] |
| CS(=O)(=O)NCCSCc1ccccc1 | -14.9% | 0.0164 µM [falling, full curve, poor fit] | – |
| O=C(Cn1c(-c2cscn2)nc2ccccc21)Nc1ccc2ccccc2c1 | -23.8% | – | – |
| CN(CC(=O)Nc1ccccc1Br)C(=O)c1ccc(-c2ccc(Cl)cc2)o1 | -13.5% | – | – |
| CCOC(=O)C1CCN(C(=O)COC(=O)c2oc3ccc(OC)cc3c2C)CC1 | -1.91% | 3.66 µM [falling, full curve] | – |
| COc1ccc(Cl)cc1NC(=O)NCC1CCN(C(=O)OC(C)(C)C)CC1 | -52.6% | 3.26 µM [falling, full curve] | 5.17 µM [falling, full curve] |
| COc1ccc(S(=O)(=O)n2oc(=O)cc2-c2ccccc2)cc1OC | 15.1% | 20.6 µM [rising, single point] | – |
| NC(=O)C1CCN(C(=O)COc2ccc3c(c2)oc(=O)c2ccccc23)CC1 | -3.88% | – | – |
| CCn1c(SC(C)C(=O)Nc2ccc(N3CCOCC3)cc2)nnc1C1CC1 (stereo not drawn) | 2.2% | 0.291 µM [falling, full curve, poor fit] | – |
| COc1cc(C(=O)NCCC(=O)NCCCN2CCCCC2C)cc(OC)c1OC (stereo not drawn) | -2.44% | 0.58 µM [falling, single point] | – |
| COc1ccc(NC(=O)c2cc(S(=O)(=O)N3CCCC3)ccc2C)cn1 | -9.86% | 0.0651 µM [falling, full curve, poor fit] | – |
| COC(=O)c1c(NC(=O)CN2CCN(c3ccccc3OC)CC2)c2cc(C)ccc2n1C | 17% | 6.51 µM [rising, single point] | – |
| COc1ccc(NC(=O)CNC(=O)CC23CC4CC(CC(C4)C2)C3)c(OC)c1 | 23.3% | – | – |
| CC1(C)CC(=O)C(N=Nc2ccc(Br)cc2)=C(O)C1 | 7.02% | – | 0.00461 µM [rising, full curve, poor fit] |
| Cc1ccc(OC(C)c2nnc(N)s2)cc1Cl (stereo not drawn) | 161% | 20.6 µM [rising, partial curve] | 20.6 µM [rising, partial curve] |

Quoted from the listing.
`COc1ccc(S(=O)(=O)n2oc(=O)cc2-c2ccccc2)cc1OC` | cell number change: 15.1%
`COc1ccc(NC(=O)CNC(=O)CC23CC4CC(CC(C4)C2)C3)c(OC)c1` | cell number change: 23.3%
`O=C(Cn1c(-c2cscn2)nc2ccccc21)Nc1ccc2ccccc2c1` | cell number change: -23.8%

(cont.)

| Compound | cell number change | AC50 [1] | AC50 [2] |
| --- | --- | --- | --- |
| Cc1ccsc1C(=O)OCC(=O)NC1CCCCC1C (stereo not drawn) | -25.7% | 29.1 µM [falling, single point] | 0.82 µM [falling, full curve, poor fit] |
| O=C(COc1cc(=O)n2c(n1)SCCC2)c1ccccc1 | 23.1% | 10.3 µM [rising, partial curve] | – |
| CCOC(=O)c1c(C)[nH]c(C)c1C(=O)COC(=O)c1c(OC)cccc1OC | 2.01% | – | – |
| CCOc1cc(CNc2ccc(N(C)C)cc2)cc(Br)c1OCC(=O)NC(C)(C)C | -49.7% | 20.6 µM [falling, single point] | 29.1 µM [falling, single point] |
| CC(=O)N=c1cccc(NC(C)=O)n1O | -25.4% | 1.03 µM [falling, full curve] | 0.231 µM [falling, full curve, poor fit] |
| Cc1ccc(OCC(O)CNC2CCCC2)cc1C (stereo not drawn) | 32% | 16.4 µM [rising, single point] | 32.6 µM [rising, single point] |
| O=C1CC(C(=O)Nc2ccc(F)c(Cl)c2)N=C(N2CCCCC2)N1 (stereo not drawn) | – | 4.11 µM [falling, single point] | – |
| CC(=O)c1c(C)n(CCO)c2ccc(O)cc12 | – | – | 1.46 µM [rising, full curve, poor fit] |
| COc1cccc(C(=O)N(Cc2ccco2)c2c(N)n(Cc3ccccc3)c(=O)[nH]c2=O)c1 | 0.803% | – | – |
| CCOC(=O)C1=NN(C(C)=O)C2(CC(=O)N(c3cccc(C)c3)C2=O)C1 (stereo not drawn) | -12.7% | 4.11 µM [falling, full curve, poor fit] | – |
| C[C@@H](OC(=O)N1CCCCC1)[C@H]1O[C@]2(C)CCCC[C@H]1O2 | 11% | 1.16 µM [rising, full curve] | – |
| CCc1cccc(OCC(O)Cn2c(N3CCCCC3)nc3c2c(=O)[nH]c(=O)n3C)c1 (stereo not drawn) | -24.5% | 4.61 µM [falling, single point] | – |
| CCCCc1ccc(NC(=O)CC(C)C)cc1 | -2.17% | 0.184 µM [falling, full curve, poor fit] | – |
| O=C(Cn1ncc(Cl)c(Cl)c1=O)NC1CCCCC1 | -0.934% | 0.651 µM [falling, single point] | – |
| CCOC(=O)c1ccccc1NC(=O)COC(=O)CCC(=O)N1CCOCC1 | -2.97% | – | 0.82 µM [rising, full curve, poor fit] |
| CSc1nsc(/C=C/Nc2ccc(Cl)cc2)c1C#N | -0.648% | 18.4 µM [falling, single point] | – |
| CCOC(=O)c1sc(NC(=O)CSc2n[nH]c(CC(C)C)n2)nc1C | -72.1% | 16.4 µM [falling, partial curve] | 23.1 µM [falling, single point] |
| Cc1cccc(N2CCN(C(=O)Cn3cccc3)CC2)c1C | 32.4% | 0.146 µM [rising, full curve] | 29.1 µM [rising, single point] |
| CCOC(=O)C1(Cc2cccc(OC)c2)CCN(Cc2ccccc2)CC1 | -18.9% | 29.1 µM [falling, single point] | – |
| Cc1ccc(N2C(=O)C3C4C=CC(CNC(=S)Nc5ccc(Cl)cc5)(O4)C3C2=O)cc1 (stereo not drawn) | 30.9% | 0.651 µM [rising, single point] | 29.1 µM [rising, single point] |
